For at least one compound, name, drawing or mass did not settle the structure.
Test system: individual with type 2 diabetes
Test: Combination therapy of gastrointestinal implant plus liraglutide in an individual with type 2 diabetes
Assay type: in vivo, human
Details: liraglutide 1.2 mg daily plus gastrointestinal implant
[1] = after 9 months of combination therapy

For CCCCCCCCCCCCCCCC(=O)N[C@@H](CCC(=O)NCCCC[C@H](NC(=O)[C@H](C)NC(=O)[C@H](C)NC(=O)[C@H](CCC(N)=O)NC(=O)CNC(=O)[C@H](CCC(=O)O)NC(=O)[C@H](CC(C)C)NC(=O)[C@H](Cc1ccc(O)cc1)NC(=O)[C@H](CO)NC(=O)[C@H](CO)NC(=O)[C@@H](NC(=O)[C@H](CC(=O)O)NC(=O)[C@H](CO)NC(=O)[C@@H](NC(=O)[C@H](Cc1ccccc1)NC(=O)[C@@H](NC(=O)CNC(=O)[C@H](CCC(=O)O)NC(=O)[C@H](C)NC(=O)[C@@H](N)Cc1cnc[nH]1)[C@@H](C)O)[C@@H](C)O)C(C)C)C(=O)N[C@@H](CCC(=O)O)C(=O)N[C@@H](Cc1ccccc1)C(=O)N[C@H](C(=O)N[C@@H](C)C(=O)N[C@@H](Cc1c[nH]c2ccccc12)C(=O)N[C@@H](CC(C)C)C(=O)N[C@H](C(=O)N[C@@H](CCCNC(=N)N)C(=O)NCC(=O)N[C@@H](CCCNC(=N)N)C(=O)NCC(=O)O)C(C)C)[C@@H](C)CC)C(=O)O [liraglutide], the “combination compared with gastrointestinal implant or liraglutide alone” value was “superior to gastrointestinal implant or liraglutide alone”, the glucose control [1] was “improvements in glucose control” and the loss of weight [1] was > 10 kg. The “reduction in total body weight” value [1] was > 10.0% and the “reduction in HbA1c” value (after 9 months of combination therapy, BMI>30) was > 2.0%.

From US11179325B2, “Therapeutic methods involving gastrointestinal implants for administering metabolic agents” (GI Dynamics, Inc., priority 2016, dated 2021)
